Test results taken from PubChem BioAssay AID540276 (National Center for Advancing Translational Sciences (NCATS), 2011).
The campaign covered roughly 300,000 compounds. About 5,400 (1.8%) were called active. Inconclusive results, whose numbers are uncertain, are shown with a selection of clear calls. The call rests on the fitted dose curve; tested in HEK293 cells. Where the call is inconclusive, the potency comes from a doubtful curve fit.

assay: qHTS for inhibitors of binding or entry into cells for Marburg Virus; details: Marburg virus pseudotyped entry inhibition, cell reporter; series mostly up to 37.8 µM
Potency means the concentration at half of the fitted maximal effect.

**Q.** With O=C(C1CCCN(S(=O)(=O)c2ccc(Br)s2)C1)N1CCN(c2ccccc2F)CC1 (configuration not stated) as the molecule, how does the Potency read?
**A.** Its Potency is “inactive”.

**Q.** With CCn1c(COc2ccc(C)cc2)nnc1SCC(=O)Nc1ccc(S(N)(=O)=O)cc1 as the molecule, how does the Potency read?
**A.** Its Potency is inconclusive: 1.26 µM [inhibitor, full curve, poor fit].

**Q.** Which Potency does the source give for CC/C(=C(/c1ccccc1)c1ccc(OCC[N+](C)(C)C)cc1)c1ccccc1 here?
**A.** Its Potency is inconclusive: 1 µM [inhibitor, partial curve, poor fit].

**Q.** With Cc1ccc(-c2nn(-c3ccccc3)cc2C(=O)NN2CCN(C)CC2)cc1 as the molecule, how does the Potency read?
**A.** Its Potency is inconclusive: 12.6 µM [inhibitor, partial curve, poor fit].

**Q.** For CCOC(=O)c1cn(CC(=O)Nc2ccc(OC)cc2OC)nn1, which Potency is on record?
**A.** The Potency was “inactive”.

**Q.** Which Potency does the source give for O=C(Nc1cnn(Cc2ccc(Cl)cc2)c1)c1ccc([N+](=O)[O-])cc1 here?
**A.** Its Potency is active: 11.2 µM.

**Q.** Which Potency does the source give for Cc1cccc(N=C2NC(=O)/C(=C\c3cccs3)S2)c1 here?
**A.** The Potency was inconclusive: 7.08 µM [activator, full curve].

**Q.** Which Potency does the source give for O=C(NC(C(=O)N/N=C/c1c2ccccc2cc2ccccc12)c1n[nH]c(=O)c2ccccc12)c1ccccc1 (configuration not stated) here?
**A.** Its Potency is inconclusive: 7.08 µM [inhibitor, full curve, poor fit].

**Q.** With CC(C)Nc1nc(-c2ccccc2)nc(-n2ccnc2)n1 as the molecule, how does the Potency read?
**A.** Its Potency is inconclusive: 29.1 µM [inhibitor, single point].

**Q.** Which Potency does the source give for O=S(=O)(NC(=S)NC1CCCCC1)c1ccc(Cl)cc1 here?
**A.** Its Potency is “inactive”.

**Q.** For CCn1cc(C(=O)NC(C)C2CC3CCC2C3)cn1 (configuration not stated), which Potency is on record?
**A.** The Potency was “inactive”.

**Q.** Which Potency does the source give for CC(C)CC(COCc1cccc(C(F)(F)F)c1)N1CCN(C(=O)c2cccc(C(F)(F)F)c2)CCC1=O (configuration not stated) here?
**A.** The Potency was inconclusive: 2.06 µM [inhibitor, single point].

**Q.** With CN1CCc2nc(NC(=O)c3cccc(OC(F)F)c3)sc2C1 as the molecule, how does the Potency read?
**A.** Its Potency is “inactive”.

**Q.** Which Potency does the source give for COc1ccc(Nc2nc3ccccc3s2)cc1 here?
**A.** Its Potency is inconclusive: 1 µM [activator, full curve, poor fit].

**Q.** With CC(c1ccco1)N(C(=O)c1ccccc1F)c1ccccn1 (configuration not stated) as the molecule, how does the Potency read?
**A.** The Potency was “inactive”.

**Q.** Which Potency does the source give for O=C(Nc1ccc(Cl)cc1F)C1CCCN(C2=NS(=O)(=O)c3ccccc32)C1 (configuration not stated) here?
**A.** Its Potency is “inactive”.

**Q.** With C=C(C)COc1ccc(C2NC(=O)c3ccccc3O2)cc1OCC (configuration not stated) as the molecule, how does the Potency read?
**A.** Its Potency is “inactive”.

**Q.** For Cc1ccc(C)c(OCCn2c(CCNC(=O)C3CCCCC3)nc3ccccc32)c1, which Potency is on record?
**A.** Its Potency is inconclusive: 17.8 µM [activator, partial curve, poor fit].

**Q.** For COc1ccc(C(=O)Nc2sc3c(c2C(=O)NCc2ccco2)CCCC3)cc1OC, which Potency is on record?
**A.** The Potency was “inactive”.

**Q.** With COc1cccc(-c2nnc(-c3ccccc3NC(=O)c3ccc(F)cc3F)o2)c1 as the molecule, how does the Potency read?
**A.** Its Potency is “inactive”.

**Q.** Which Potency does the source give for O=C1CC(N2CCCCC2)C(=O)N1c1ccccc1 (configuration not stated) here?
**A.** The Potency was “inactive”.

**Q.** Which Potency does the source give for COc1ccc(NC(=O)c2cc(-c3ccco3)on2)cc1 here?
**A.** Its Potency is inconclusive: 28.2 µM [activator, single point].

**Q.** For CCn1c(/C=C/Nc2ccccc2)[n+](CC)c2cc(Cl)c(Cl)cc21, which Potency is on record?
**A.** The Potency was active: 12.6 µM.

**Q.** With CC(=O)c1c(C)[nH]c(C(=O)Nc2ccc(S(=O)(=O)N(C)C)cc2)c1C as the molecule, how does the Potency read?
**A.** Its Potency is “inactive”.

**Q.** For Cc1ccccc1OCC(=O)OCC(=O)c1ccc(OCc2ccccc2)cc1, which Potency is on record?
**A.** The Potency was inconclusive: 0.366 µM [activator, single point].

**Q.** Which Potency does the source give for CNC(=O)C(=O)N/N=C/c1cccnc1 here?
**A.** The Potency was inconclusive: 1.26 µM [activator, single point].

**Q.** For CCC(C(=O)NC1CCCC1)N(Cc1ccco1)C(=O)Cn1nnc(-c2ccc(C)cc2)n1 (configuration not stated), which Potency is on record?
**A.** The Potency was inconclusive: 29.1 µM [inhibitor, single point].

**Q.** Which Potency does the source give for Cc1nc(-c2ccccc2)cc(-c2ccccc2)n1 here?
**A.** The Potency was “inactive”.

**Q.** Which Potency does the source give for CN1CCN(C(=O)Nc2ccc3c(c2)N(C)C(=O)c2ccccc2S3)CC1 here?
**A.** Its Potency is inconclusive: 35.5 µM [inhibitor, partial curve, poor fit].

**Q.** For COc1ccc(CNC(=O)CCSCc2ccccc2C)cc1, which Potency is on record?
**A.** The Potency was “inactive”.

**Q.** Which Potency does the source give for Cc1c(C#N)c2ncnc(-c3ccccc3)c2n1-c1ccccc1 here?
**A.** The Potency was “inactive”.

**Q.** Which Potency does the source give for Cc1nnc(NC(=O)CSc2nc(C(C)C)nc3ccccc23)s1 here?
**A.** Its Potency is “inactive”.

**Q.** Which Potency does the source give for Cc1ccc(-n2nc3c(c2NC(=O)c2ccc4c(c2)OCO4)CS(=O)(=O)C3)c(C)c1 here?
**A.** The Potency was “inactive”.

**Q.** Which Potency does the source give for Cc1ccccc1C(=O)N1CCN(c2ccccn2)CC1 here?
**A.** The Potency was “inactive”.

**Q.** For COc1ccc(CCNC(=S)NC(=O)/C=C/c2ccc(C)cc2)cc1OC, which Potency is on record?
**A.** Its Potency is inconclusive: 29.1 µM [inhibitor, single point].

**Q.** For COc1ccc(OCC(=O)NC(=S)Nc2ccc(S(=O)(=O)Nc3cc(C)on3)cc2)cc1, which Potency is on record?
**A.** The Potency was inconclusive: 35.5 µM [inhibitor, single point].

**Q.** With O=C(CSc1ccccn1)Nc1ccc2c(c1)CCC2 as the molecule, how does the Potency read?
**A.** The Potency was inconclusive: 5.62 µM [activator, single point].

**Q.** For O=C(Nc1ncc([N+](=O)[O-])s1)c1ccc2c(c1)OCO2, which Potency is on record?
**A.** Its Potency is active: 1.58 µM.

**Q.** For Cc1nc(SCc2cccc(Oc3ccccc3)c2)n[nH]1, which Potency is on record?
**A.** Its Potency is “inactive”.

**Q.** For Cc1cc(=O)[nH]c(SCC(=O)c2ccc(F)c(C)c2)n1, which Potency is on record?
**A.** Its Potency is inconclusive: 1.26 µM [inhibitor, single point].

**Q.** With CC1(OC(=O)CCc2ccccc2)C(=O)C=C2C=C(c3ccc(C#N)cc3)N(Cc3ccccc3)C=C2C1=O (configuration not stated) as the molecule, how does the Potency read?
**A.** Its Potency is inconclusive: 0.0047 µM [inhibitor, full curve, poor fit].

**Q.** For O=C1OC(c2ccccc2)(c2ccccc2)c2ccccc21, which Potency is on record?
**A.** The Potency was inconclusive: 35.5 µM [inhibitor, partial curve, poor fit].

**Q.** For C/C(=N\OC(=O)Nc1ccccc1)c1ccc(C)cc1, which Potency is on record?
**A.** Its Potency is inconclusive: 4.47 µM [activator, full curve].

**Q.** Which Potency does the source give for O=C(N/N=C/c1ccc(O)cc1)/C(=C/c1ccc([N+](=O)[O-])cc1)NC(=O)c1ccccc1 here?
**A.** Its Potency is inconclusive: 6.51 µM [activator, partial curve, poor fit].

**Q.** Which Potency does the source give for CCSc1nc2cc(OC)c(OC)cc2c(=O)n1CCc1ccccc1 here?
**A.** The Potency was inconclusive: 1.3 µM [inhibitor, partial curve, poor fit].

**Q.** Which Potency does the source give for O=C(NCCCNC(=O)c1cnccn1)c1ccc(Br)cc1 here?
**A.** The Potency was inconclusive: 12.6 µM [activator, single point].

**Q.** With Cc1cccc(NC(=O)CS(=O)CC(=O)Nc2cnc3ccccc3c2)c1C (configuration not stated) as the molecule, how does the Potency read?
**A.** The Potency was inconclusive: 31.6 µM [activator, single point].
